≈ marks a conversion by molar mass, not a printed value. Further values from the same series stand in other lists.
Tested on: Pasteurella multocida
Assay: minimum inhibitory concentration (MIC)
Protocol: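 Broth microdilution MIC (Sensititre BOPO7F bovine plate, CLSI methods) of 19 antimicrobials against field isolates of P. multocida, M. haemolytica, H. somni (deep nasopharyngeal swabs) and E. coli, Enterococcus spp. (rectal swabs) from weaned dairy heifers. Incubation 16-24 h at 35 C. MIC is the lowest concentration preventing visible growth. Values with <= or > lie at the tested range limits. Trimethoprim-sulfamethoxazole is given as the trimethoprim component of a 1:19 mixture.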

CC1(C)S[C@@H]2[C@H](NC(=O)Cc3ccccc3)C(=O)N2[C@H]1C(=O)O [Penicillin]
Settings | minimum inhibitory concentration [µg/mL]
isolate (source animal id): 30 | ≤ 0.12
isolate (source animal id): 34 | ≤ 0.12
isolate (source animal id): 36 | ≤ 0.12
isolate (source animal id): 37 | 0.25 (≈ 0.748 µM)
isolate (source animal id): 46 | ≤ 0.12
isolate (source animal id): 48 | ≤ 0.12
isolate (source animal id): 49 | 0.25 (≈ 0.748 µM)
isolate (source animal id): 54 | 0.25 (≈ 0.748 µM)
isolate (source animal id): 55 | ≤ 0.12
isolate (source animal id): 58 | 0.25 (≈ 0.748 µM)
isolate (source animal id): 60 | 0.25 (≈ 0.748 µM)
isolate (source animal id): 61 | > 8
isolate (source animal id): 63 | 0.25 (≈ 0.748 µM)
isolate (source animal id): 64 | 0.25 (≈ 0.748 µM)
isolate (source animal id): 65 | > 8
isolate (source animal id): 66 | 0.25 (≈ 0.748 µM)
isolate (source animal id): 67 | 0.25 (≈ 0.748 µM)
isolate (source animal id): 69 | ≤ 0.12
isolate (source animal id): 73 | 0.25 (≈ 0.748 µM)
isolate (source animal id): 75 | 0.25 (≈ 0.748 µM)
isolate (source animal id): 76 | ≤ 0.12
isolate (source animal id): 77 | ≤ 0.12
isolate (source animal id): 78 | ≤ 0.12
isolate (source animal id): 80 | ≤ 0.12
isolate (source animal id): 82 | 0.25 (≈ 0.748 µM)
isolate (source animal id): 83 | ≤ 0.12
isolate (source animal id): 88 | ≤ 0.12
isolate (source animal id): 92 | ≤ 0.12
isolate (source animal id): 94 | ≤ 0.12
isolate (source animal id): 318 | 0.25 (≈ 0.748 µM)
isolate (source animal id): 319 | 0.25 (≈ 0.748 µM)
isolate (source animal id): 320 | 0.25 (≈ 0.748 µM)
isolate (source animal id): 321 | 0.25 (≈ 0.748 µM)
isolate (source animal id): 322 | ≤ 0.12
isolate (source animal id): 324 | 0.25 (≈ 0.748 µM)
isolate (source animal id): 325 | ≤ 0.12
isolate (source animal id): 328 | ≤ 0.12
isolate (source animal id): 330 | 0.25 (≈ 0.748 µM)
isolate (source animal id): 331 | ≤ 0.12
isolate (source animal id): 333 | 0.25 (≈ 0.748 µM)
isolate (source animal id): 336 | ≤ 0.12
isolate (source animal id): 337 | ≤ 0.12
isolate (source animal id): 339 | 0.25 (≈ 0.748 µM)
isolate (source animal id): 340 | 0.25 (≈ 0.748 µM)
isolate (source animal id): 341 | 0.25 (≈ 0.748 µM)

CN[C@@H]1[C@H](O)[C@H](NC)[C@H]2O[C@@]3(O)C(=O)C[C@@H](C)O[C@H]3O[C@@H]2[C@H]1O [Spectinomycin]
Settings | minimum inhibitory concentration [µg/mL]
isolate (source animal id): 30 | 32 (≈ 96.3 µM)
isolate (source animal id): 34 | 16 (≈ 48.1 µM)
isolate (source animal id): 36 | 32 (≈ 96.3 µM)
isolate (source animal id): 37 | 32 (≈ 96.3 µM)
isolate (source animal id): 46 | 16 (≈ 48.1 µM)
isolate (source animal id): 48 | 32 (≈ 96.3 µM)
isolate (source animal id): 49 | 32 (≈ 96.3 µM)
isolate (source animal id): 54 | 32 (≈ 96.3 µM)
isolate (source animal id): 55 | 32 (≈ 96.3 µM)
isolate (source animal id): 58 | 32 (≈ 96.3 µM)
isolate (source animal id): 60 | 32 (≈ 96.3 µM)
isolate (source animal id): 61 | 32 (≈ 96.3 µM)
isolate (source animal id): 63 | 32 (≈ 96.3 µM)
isolate (source animal id): 64 | 32 (≈ 96.3 µM)
isolate (source animal id): 65 | 16 (≈ 48.1 µM)
isolate (source animal id): 66 | > 64
isolate (source animal id): 67 | 32 (≈ 96.3 µM)
isolate (source animal id): 69 | 32 (≈ 96.3 µM)
isolate (source animal id): 73 | 32 (≈ 96.3 µM)
isolate (source animal id): 75 | 32 (≈ 96.3 µM)
isolate (source animal id): 76 | 32 (≈ 96.3 µM)
isolate (source animal id): 77 | 16 (≈ 48.1 µM)
isolate (source animal id): 78 | 32 (≈ 96.3 µM)
isolate (source animal id): 80 | 32 (≈ 96.3 µM)
isolate (source animal id): 82 | 32 (≈ 96.3 µM)
isolate (source animal id): 83 | 32 (≈ 96.3 µM)
isolate (source animal id): 88 | > 64
isolate (source animal id): 92 | 16 (≈ 48.1 µM)
isolate (source animal id): 94 | 32 (≈ 96.3 µM)
isolate (source animal id): 318 | 32 (≈ 96.3 µM)
isolate (source animal id): 319 | 32 (≈ 96.3 µM)
isolate (source animal id): 320 | 16 (≈ 48.1 µM)
isolate (source animal id): 321 | 16 (≈ 48.1 µM)
isolate (source animal id): 322 | 16 (≈ 48.1 µM)
isolate (source animal id): 324 | 16 (≈ 48.1 µM)
isolate (source animal id): 325 | 16 (≈ 48.1 µM)
isolate (source animal id): 328 | 16 (≈ 48.1 µM)
isolate (source animal id): 330 | 16 (≈ 48.1 µM)
isolate (source animal id): 331 | 16 (≈ 48.1 µM)
isolate (source animal id): 333 | 16 (≈ 48.1 µM)
isolate (source animal id): 336 | ≤ 8
isolate (source animal id): 337 | 16 (≈ 48.1 µM)
isolate (source animal id): 339 | 16 (≈ 48.1 µM)
isolate (source animal id): 340 | 16 (≈ 48.1 µM)
isolate (source animal id): 341 | 16 (≈ 48.1 µM)

CN(C)[C@@H]1C(O)=C(C(N)=O)C(=O)[C@@]2(O)C(O)=C3C(=O)c4c(O)cccc4[C@@](C)(O)[C@H]3C[C@@H]12 [Tetracycline]
Settings | minimum inhibitory concentration [µg/mL]
isolate (source animal id): 30 | > 8
isolate (source animal id): 34 | > 8
isolate (source animal id): 36 | > 8
isolate (source animal id): 37 | > 8
isolate (source animal id): 46 | 8 (≈ 18 µM)
isolate (source animal id): 48 | > 8
isolate (source animal id): 49 | > 8
isolate (source animal id): 54 | > 8
isolate (source animal id): 55 | > 8
isolate (source animal id): 58 | > 8
isolate (source animal id): 60 | > 8
isolate (source animal id): 61 | > 8
isolate (source animal id): 63 | > 8
isolate (source animal id): 64 | > 8
isolate (source animal id): 65 | > 8
isolate (source animal id): 66 | > 8
isolate (source animal id): 67 | > 8
isolate (source animal id): 69 | > 8
isolate (source animal id): 73 | > 8
isolate (source animal id): 75 | > 8
isolate (source animal id): 76 | > 8
isolate (source animal id): 77 | > 8
isolate (source animal id): 78 | > 8
isolate (source animal id): 80 | > 8
isolate (source animal id): 82 | > 8
isolate (source animal id): 83 | > 8
isolate (source animal id): 88 | 8 (≈ 18 µM)
isolate (source animal id): 92 | > 8
isolate (source animal id): 94 | > 8
isolate (source animal id): 318 | > 8
isolate (source animal id): 319 | > 8
isolate (source animal id): 320 | > 8
isolate (source animal id): 321 | > 8
isolate (source animal id): 322 | > 8
isolate (source animal id): 324 | > 8
isolate (source animal id): 325 | > 8
isolate (source animal id): 328 | > 8
isolate (source animal id): 330 | > 8
isolate (source animal id): 331 | 8 (≈ 18 µM)
isolate (source animal id): 333 | > 8
isolate (source animal id): 336 | > 8
isolate (source animal id): 337 | > 8
isolate (source animal id): 339 | > 8
isolate (source animal id): 340 | > 8
isolate (source animal id): 341 | > 8

C=C[C@]1(C)C[C@@H](OC(=O)CSCCN(CC)CC)[C@]2(C)[C@H](C)CC[C@]3(CCC(=O)[C@H]32)[C@@H](C)[C@@H]1O [Tiamulin]
Settings | minimum inhibitory concentration [µg/mL]
isolate (source animal id): 30 | 16 (≈ 32.4 µM)
isolate (source animal id): 34 | 16 (≈ 32.4 µM)
isolate (source animal id): 36 | 16 (≈ 32.4 µM)
isolate (source animal id): 37 | 16 (≈ 32.4 µM)
isolate (source animal id): 46 | 16 (≈ 32.4 µM)
isolate (source animal id): 48 | 16 (≈ 32.4 µM)
isolate (source animal id): 49 | 32 (≈ 64.8 µM)
isolate (source animal id): 54 | 32 (≈ 64.8 µM)
isolate (source animal id): 55 | 32 (≈ 64.8 µM)
isolate (source animal id): 58 | 16 (≈ 32.4 µM)
isolate (source animal id): 60 | 32 (≈ 64.8 µM)
isolate (source animal id): 61 | 32 (≈ 64.8 µM)
isolate (source animal id): 63 | 32 (≈ 64.8 µM)
isolate (source animal id): 64 | 16 (≈ 32.4 µM)
isolate (source animal id): 65 | 32 (≈ 64.8 µM)
isolate (source animal id): 66 | 32 (≈ 64.8 µM)
isolate (source animal id): 67 | 32 (≈ 64.8 µM)
isolate (source animal id): 69 | 32 (≈ 64.8 µM)
isolate (source animal id): 73 | 32 (≈ 64.8 µM)
isolate (source animal id): 75 | 32 (≈ 64.8 µM)
isolate (source animal id): 76 | 32 (≈ 64.8 µM)
isolate (source animal id): 77 | 16 (≈ 32.4 µM)
isolate (source animal id): 78 | 32 (≈ 64.8 µM)
isolate (source animal id): 80 | 32 (≈ 64.8 µM)
isolate (source animal id): 82 | 32 (≈ 64.8 µM)
isolate (source animal id): 83 | 32 (≈ 64.8 µM)
isolate (source animal id): 88 | 16 (≈ 32.4 µM)
isolate (source animal id): 92 | 32 (≈ 64.8 µM)
isolate (source animal id): 94 | 32 (≈ 64.8 µM)
isolate (source animal id): 318 | 32 (≈ 64.8 µM)
isolate (source animal id): 319 | 32 (≈ 64.8 µM)
isolate (source animal id): 320 | > 32
isolate (source animal id): 321 | 32 (≈ 64.8 µM)
isolate (source animal id): 322 | 32 (≈ 64.8 µM)
isolate (source animal id): 324 | 32 (≈ 64.8 µM)
isolate (source animal id): 325 | 32 (≈ 64.8 µM)
isolate (source animal id): 328 | 32 (≈ 64.8 µM)
isolate (source animal id): 330 | 32 (≈ 64.8 µM)
isolate (source animal id): 331 | 32 (≈ 64.8 µM)
isolate (source animal id): 333 | 32 (≈ 64.8 µM)
isolate (source animal id): 336 | > 32
isolate (source animal id): 337 | 16 (≈ 32.4 µM)
isolate (source animal id): 339 | 32 (≈ 64.8 µM)
isolate (source animal id): 340 | 32 (≈ 64.8 µM)
isolate (source animal id): 341 | > 32

From the supplement of paper PMC8612539
